Values from PubChem BioAssay AID1508597 (Cure First, 2020).
Aim: 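Knock-downs altering ovarian cancer cell survival with or without PARP inhibitor rucaparib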 (primary screen). Cells: human ovarian carcinoma lines grown from tumours: OCI-P5x (papillary serous) and OCI-C5x (clear cell). Reagents: siRNA pool against human genes, 1.25 pmol siRNA per well. Duration: 72 h or 96 h, depending on the cell culture. Treatment: rucaparib 20 µM (about IC30) or vehicle, present until read-out. Rucaparib or vehicle: Rucaparib. Cell line: OCI-C5x (clear cell). Detection: 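Luminescent ATP-based viability assay read 72 or 96 h after transfection, depending on culture, given as normalised percent viability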. Direction: viability, normalised: higher = more viable cells remaining. Active means: 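Active when normalised viability falls below 80 percent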. Calls: active = viability under 80%; inactive = viability 80% or more.
This is a random part of the about 2,100 reagents, in one setting of the screen. 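Calls flag viability under 80% in either arm, not effects specific to rucaparib; the reference for percent is not stated.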 Entries without a mark were called inactive. A reagent listed more than once was tested more than once; the source does not tell the runs apart. Not given: the 100% reference.

gene	technical replicate	viability, normalised (%)
USH2A (GeneID 7399)	1	80.9
USH2A (GeneID 7399)	2	70.6 (active)
USH2A (GeneID 7399)	3	75 (active)
AK3 (GeneID 50808)	1	42.4 (active)
AK3 (GeneID 50808)	2	53.5 (active)
AK3 (GeneID 50808)	3	46.8 (active)
PRKAA2 (GeneID 5563)	1	45.7 (active)
PRKAA2 (GeneID 5563)	2	57.5 (active)
PRKAA2 (GeneID 5563)	3	65.9 (active)
DGKE (GeneID 8526)	1	50 (active)
DGKE (GeneID 8526)	2	61.5 (active)
DGKE (GeneID 8526)	3	67.1 (active)
DHX58 (GeneID 79132)	1	49.9 (active)
DHX58 (GeneID 79132)	2	51.2 (active)
DHX58 (GeneID 79132)	3	35.2 (active)
CHD3 (GeneID 1107)	1	46.5 (active)
CHD3 (GeneID 1107)	2	51.5 (active)
CHD3 (GeneID 1107)	3	47.4 (active)
DPF2 (GeneID 5977)	1	49.9 (active)
DPF2 (GeneID 5977)	2	56.6 (active)
DPF2 (GeneID 5977)	3	41.6 (active)
POU1F1 (GeneID 5449)	1	45.7 (active)
POU1F1 (GeneID 5449)	2	37 (active)
POU1F1 (GeneID 5449)	3	49.1 (active)
PARP2 (GeneID 10038)	1	44.5 (active)
PARP2 (GeneID 10038)	1	61 (active)
PARP2 (GeneID 10038)	2	53.8 (active)
PARP2 (GeneID 10038)	2	41.9 (active)
PARP2 (GeneID 10038)	3	33.9 (active)
PARP2 (GeneID 10038)	3	67.5 (active)
PTEN (GeneID 5728)	1	56.2 (active)
PTEN (GeneID 5728)	2	56.2 (active)
PTEN (GeneID 5728)	3	57.9 (active)
YTHDC2 (GeneID 64848)	1	58.4 (active)
YTHDC2 (GeneID 64848)	2	69.6 (active)
YTHDC2 (GeneID 64848)	3	37.9 (active)
BMX (GeneID 660)	1	54.4 (active)
BMX (GeneID 660)	2	58.6 (active)
BMX (GeneID 660)	3	47.5 (active)

Part of the list above, set out differently:
| gene | technical replicate | viability, normalised (%) |
| --- | --- | --- |
| CHD3 (GeneID 1107) | 2 | 51.5 (active) |
| CHD3 (GeneID 1107) | 3 | 47.4 (active) |
| DPF2 (GeneID 5977) | 1 | 49.9 (active) |
| DPF2 (GeneID 5977) | 2 | 56.6 (active) |
| DPF2 (GeneID 5977) | 3 | 41.6 (active) |
